Data: paper PMC12402451
Results are given in words; binding and its absence hold for the method and conditions named.

Target: ThomasA^31-1167 (Thomasclavelia ramosa) (UniProt Q9AES2)
Experiment: SEC-SAXS; 50 uL of protein at 2 mg mL^-1 on a Superdex 200 Increase 3.2 column, 50 mM Tris-HCl pH 7.5, 100 mM NaCl, 2% v/v glycerol; molecular weight from the SAXS data; both purified

With “ThomasA^31-1167 (from UniProt Q9AES2 31-1167) (enzyme)” as the substance, how does the binding read?
The binding was “no binding (tested: 2 mg mL^-1 injected)”.
